Assay results as given in PubChem BioAssay AID445 (National Center for Advancing Translational Sciences (NCATS), 2006).
This is one part of the list. The main result of the screen is listed elsewhere. These columns were measured beside it and carry no call. The list favours compounds with an active or inconclusive main result. Potencies come from curve fits of mixed quality, noted in brackets.

Experiment: IkB Signaling
Conditions: ABC-DLBCL IkBa-CBG/CBR dual luciferase ratio (green luciferase fused to IkBa over red control in OCI-Ly3 lymphoma cells), 4 h; measured here: control luc red channel unless noted
Outline: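 In this assay, an IκBα–CBG68 fusion accumulates when IKK-driven degradation is blocked; native CBR normalizes for cell number. OCI-Ly3 cells were treated 4 h with compound and doxycycline, then green and red light read after Chroma-Glo addition.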

Row | Compound | AC50
1 | Cn1c(C(C#N)C(=O)c2sc3ccccc3c2Cl)nc2ccccc21 (stereo not drawn) | 25.1 µM [rising, partial curve] [measured here: IkB-luc green channel]
2 | CCOc1ccc(S(=O)(=O)c2cn(Cc3ccccc3C)c3ccc(OC)cc3c2=O)cc1 | 1 µM [falling, full curve, poor fit]
3 | O=C(O)CCC(=O)Nc1nc(-c2ccccc2)cs1 | 15.8 µM [falling, partial curve]
4 | O=C(c1ccc2c(c1)N(Cc1c(F)cccc1Cl)C(=O)c1ccccc1S2)N1CCOCC1 | 25.1 µM [falling, partial curve]
5 | CCOc1cccc(C2c3[nH]c4ccccc4c3CCN2C(=O)CSCc2ccc(F)cc2)c1 (stereo not drawn) | 1.26 µM [falling, full curve]
6 | Cc1ccc2c(c1)c(CC(=O)Nc1ccc(C)c(F)c1)c(C(=O)O)n2C | 31.6 µM [falling, partial curve]
7 | Cc1ccc2nc(COc3ccccc3NC(=O)c3ccccc3F)cc(=O)n2c1 | 0.0631 µM [falling, full curve, poor fit]
8 | Fc1ccc(-c2nn3c(C4COc5ccccc5O4)nnc3s2)cc1 (stereo not drawn) | 3.98 µM [falling, partial curve]
9 | NC(=O)Cn1c(=O)n(CCCCCC(=O)NCc2ccc(F)cc2)c(=O)c2sccc21 | 3.98 µM [rising, full curve, poor fit]
10 | COc1ccc(-c2c3c(=O)n(C)c(=O)n(C)c3c3n2-c2ccccc2NC3c2ccc(O)cc2O)cc1 (stereo not drawn) | 10 µM [falling, partial curve]
11 | Cc1cc(OCCCn2c(CCNC(=O)C3CCCCC3)nc3ccccc32)ccc1Cl | 12.6 µM [falling, partial curve]
12 | COc1ccc(N(CC(=O)Nc2cccc(C(C)=O)c2)S(=O)(=O)c2ccccc2)c(OC)c1 | 39.8 µM [falling, single point]
13 | CCOc1ccc(C(=O)N(Cc2cc(OC)c(OC)c(OC)c2)c2ccccn2)cc1 | 7.94 µM [falling, partial curve]
14 | CCOC(=O)C1=C(C)NC(=O)NC1c1cn(-c2ccccc2)nc1-c1ccc(OC(C)C)cc1 (stereo not drawn) | 20 µM [falling, partial curve]
15 | Cc1nn(C)c2c1c(C(F)(F)F)cc(=O)n2C(C)C(=O)NCCc1ccccc1 (stereo not drawn) | 25.1 µM [falling, partial curve]
16 | O=C(Nc1nc2n(n1)C(c1ccc(Cl)cc1)C=C(c1ccccc1)N2)c1ccco1 (stereo not drawn) | 20 µM [falling, single point]
17 | CCC(COC(=O)Nc1cccc(C)c1C)NC(=O)OCC(C)C (stereo not drawn) | 12.6 µM [falling, partial curve]
18 | COc1ccc(CCNC(c2ccc(F)cc2)c2nnc(-c3ccccc3Cl)o2)cc1OC (stereo not drawn) | 25.1 µM [falling, partial curve]
19 | Cc1cc(C)c(O)c(-c2cc(C(=O)Nc3ccc(S(=O)(=O)N4CCOCC4)cc3)[nH]n2)c1 | 6.31 µM [falling, full curve]
20 | CC(C)c1nc2cc3ccccc3cc2[nH]1 | 25.1 µM [falling, single point]
21 | CCCCCn1c(SCc2ccncc2)nc2cc(C(=O)NCc3ccco3)ccc2c1=O | 7.94 µM [falling, partial curve]

Entries from the list above that have a COOH group:
Row | Compound | AC50
3 | O=C(O)CCC(=O)Nc1nc(-c2ccccc2)cs1 | 15.8 µM [falling, partial curve]
6 | Cc1ccc2c(c1)c(CC(=O)Nc1ccc(C)c(F)c1)c(C(=O)O)n2C | 31.6 µM [falling, partial curve]

Arranged by length of the SMILES (largest number first): part of the list above
Row | Compound | AC50
10 | COc1ccc(-c2c3c(=O)n(C)c(=O)n(C)c3c3n2-c2ccccc2NC3c2ccc(O)cc2O)cc1 (stereo not drawn) | 10 µM [falling, partial curve]
12 | COc1ccc(N(CC(=O)Nc2cccc(C(C)=O)c2)S(=O)(=O)c2ccccc2)c(OC)c1 | 39.8 µM [falling, single point]
18 | COc1ccc(CCNC(c2ccc(F)cc2)c2nnc(-c3ccccc3Cl)o2)cc1OC (stereo not drawn) | 25.1 µM [falling, partial curve]
17 | CCC(COC(=O)Nc1cccc(C)c1C)NC(=O)OCC(C)C (stereo not drawn) | 12.6 µM [falling, partial curve]

Next part.

Row | Compound | AC50
22 | Cc1cc(C)c2c(=O)c3c(oc2c1)C(=O)N(Cc1ccc(F)cc1)C3c1cccc(O)c1 (stereo not drawn) | 15.8 µM [falling, partial curve]
23 | Cc1ccc(CNC(=O)CN(c2ccc(C(C)C)cc2)S(=O)(=O)c2c(C)n[nH]c2C)cc1 | 15.8 µM [falling, partial curve]
24 | Cc1cc(OCCCCCNCCO)cc(C)c1Cl | 39.8 µM [falling, single point]
25 | O=C(COc1ccc(Cl)cc1)Nc1ccccc1C(=O)OCc1cc(=O)n2ccsc2n1 | 20 µM [falling, partial curve, poor fit]
26 | CCCC(=O)NCC(c1ccc2c(c1)OCO2)N1CCOCC1 (stereo not drawn) | 0.2 µM [falling, full curve]
27 | CSc1nccc(Nc2ccccc2)c1C#N | 3.98 µM [rising, partial curve]
28 | O=C(Nc1ccc(SC(F)F)cc1)c1cc(-c2cccs2)on1 | 12.6 µM [falling, partial curve]
29 | COc1ccc(-c2cc3nc(-c4ccccc4)cc(N4CCC5(CC4)OCCO5)n3n2)cc1 | 6.31 µM [falling, partial curve]
30 | COc1ccc(OC)c(NC(=O)CSc2nc(-c3ccccc3C)nc3cc(=O)[nH]n23)c1 | 31.6 µM [falling, single point]
31 | CC(=O)c1cccc(NC(=O)CCCN2C(=O)COc3ccc(C)cc32)c1 | 39.8 µM [falling, partial curve]
32 | CCOc1ccc(C(=O)Nc2nnc(S(=O)(=O)N(CC)c3ccccc3C)s2)cc1 | 15.8 µM [rising, partial curve]
33 | O=C(NCCc1ccccc1)c1ccc2c(c1)CCN2S(=O)(=O)c1ccc(Br)cc1 | 7.94 µM [falling, full curve, poor fit]
34 | COc1ccc(N2CC(c3nc(-c4cc(OC)c(OC)c(OC)c4)no3)CC2=O)cc1Cl (stereo not drawn) | 12.6 µM [falling, partial curve]
35 | CCC(=O)N1CCCc2cc(S(=O)(=O)N3CCC(C(=O)Nc4ccc(F)c(F)c4)CC3)ccc21 | 1 µM [rising, full curve]
36 | COC(=O)c1ccccc1NC(=O)CSc1nc(-c2ccccc2)cc(C(F)(F)F)n1 | 39.8 µM [falling, single point]
37 | COc1ccccc1CNC(=O)CCc1c(C)nc2cc(-c3ccccc3OC)nn2c1C | 3.98 µM [falling, partial curve]
38 | Cc1ccc(NC(=O)CN2CCCN(Cc3ccccc3Cl)S2(=O)=O)c(C)c1 | 20 µM [falling, single point]
39 | c1ccc(CCc2nc(-c3ccccn3)no2)cc1 | 7.94 µM [falling, partial curve]
40 | O=C(C1CCCN(S(=O)(=O)c2cccc3nonc23)C1)N1CCN(c2cccc(Cl)c2)CC1 (stereo not drawn) | 10 µM [falling, partial curve]
41 | COc1cccc(/C=C/c2nc(C#N)c(N3CCCCC3)o2)c1 | 39.8 µM [falling, single point]
42 | CSc1ccc(CCNC(=O)CCc2c(C)nc3c(-c4ccccc4)c(C)nn3c2C)cc1 | 12.6 µM [falling, partial curve]

Row | Compound | AC50
43 | COC(=O)c1ccc2c(=O)n(CCCCCC(=O)NCc3ccccc3)c(=O)[nH]c2c1 | 0.251 µM [falling, full curve]
44 | CCn1cc(C2N3CC4(CC)CN2CC(CC)(C3)C4=O)c2ccccc21 (stereo not drawn) | 25.1 µM [falling, partial curve]
45 | CCOC(=O)c1c(NC(=O)/C=C/c2ccc(OC)c(OC)c2)sc(C(C)=O)c1C | 10 µM [rising, partial curve]
46 | O=C(Cc1cccs1)Nc1nc2ccccc2s1 | 15.8 µM [falling, single point]
47 | N#CCCCSc1ncccc1-c1nc2ccccc2[nH]1 | 0.1 µM [falling, full curve]
48 | COc1ccc(NC(=O)C(=O)NCC(c2ccc3c(c2)OCO3)N2CCN(C)CC2)cc1 (stereo not drawn) | 1.26 µM [falling, partial curve]
49 | CCOc1cc(CNC(=O)CCCn2c(=O)c3cccn3c3cccnc32)cc(OCC)c1OCC | 0.251 µM [rising, full curve]
50 | COc1ccc(CCNC(=O)c2cc(Nc3cc(C)cc(C)c3)nc3ccccc23)cc1OC | 12.6 µM [falling, partial curve]
51 | O=C(NCc1ccccn1)c1cc(S(=O)(=O)N2CCN(c3ccccc3)CC2)ccc1Cl | 15.8 µM [falling, partial curve]
52 | Cn1c(CSc2nc3ccccc3s2)nc2ccccc21 | 39.8 µM [falling, single point]
53 | COCC(C)n1c(C)cc(C(=O)COC(=O)c2c(C)nn(-c3ccccc3)c2C)c1C (stereo not drawn) | 12.6 µM [falling, partial curve]
54 | Cc1ccc2c(c1)sc1nc(-c3cc4ccccc4oc3=O)cn12 | 0.158 µM [falling, full curve]
55 | CCOC(=O)c1ccccc1NC(=O)CN1C(=O)CC(c2ccco2)Sc2ccccc21 (stereo not drawn) | 0.316 µM [falling, full curve]
56 | CCOC(=O)Cn1c(CN(Cc2ccccc2)Cc2ccccc2)nc2c1c(=O)n(C)c(=O)n2C | 15.8 µM [falling, partial curve]
57 | O=C(c1ccc2c(c1)N(Cc1ccc(Cl)cc1)C(=O)c1ccccc1S2=O)N1CCN(c2ccccc2F)CC1 (stereo not drawn) | 20 µM [falling, partial curve]
58 | O=C(c1ccc(F)cc1)N1CCC(c2nc3ccccc3o2)CC1 | 3.16 µM [falling, single point]
59 | CC(C)NC(=O)CC(=O)Nc1ccc2nc3n(c(=O)c2c1)CCCCC3 | 0.0501 µM [falling, full curve, poor fit]
60 | CCOc1ccccc1NC(=O)C(NS(=O)(=O)c1ccc2c(c1)CCC(=O)N2)c1ccccc1 (stereo not drawn) | 20 µM [falling, partial curve]
61 | O=C(NC1CCCCCC1)c1cc2c(Cl)nc3ccccc3c2s1 | 3.16 µM [rising, full curve]
62 | CC(C)(C)c1ccc(Oc2nc3ccccn3c(=O)c2/C=C(\C#N)c2nc3ccccc3[nH]2)cc1 | 25.1 µM [falling, single point]
63 | COc1ccc(CNC(=O)c2ccc3c(c2)N(C)C(=O)C2CCCCN32)cc1OC (stereo not drawn) | 12.6 µM [falling, partial curve, poor fit]
